Reference: article PMC6408466, “Inner lumen proteins stabilize doublet microtubules in cilia and flagella” (Nature Communications, 2019)
These are yes or no findings as the source states them, for the method shown. In cells and extracts the contact can be indirect. Binding can be weak; no strength is given. Tags and fused reporters may be left off the sequences shown.

Molecular target: T1, FAP45 (flagellar-associated protein 45) (Chlamydomonas (endogenous in wild type axonemes)) (UniProt A8I9E8)
T1 sequence: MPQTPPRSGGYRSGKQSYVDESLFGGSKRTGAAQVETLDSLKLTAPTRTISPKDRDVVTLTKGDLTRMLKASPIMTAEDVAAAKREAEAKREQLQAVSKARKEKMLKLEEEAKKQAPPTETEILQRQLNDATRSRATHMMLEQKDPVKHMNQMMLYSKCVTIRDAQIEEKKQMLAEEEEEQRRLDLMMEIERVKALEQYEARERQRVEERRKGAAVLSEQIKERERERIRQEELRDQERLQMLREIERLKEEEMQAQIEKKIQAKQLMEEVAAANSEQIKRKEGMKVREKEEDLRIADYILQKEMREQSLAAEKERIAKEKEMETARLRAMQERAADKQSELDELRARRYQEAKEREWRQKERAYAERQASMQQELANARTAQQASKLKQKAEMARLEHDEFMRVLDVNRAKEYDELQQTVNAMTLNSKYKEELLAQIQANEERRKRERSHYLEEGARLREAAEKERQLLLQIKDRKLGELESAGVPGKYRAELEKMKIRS
Experiment: cross-linking; isolated axonemes treated with EDC (zero-length crosslinker) in HMEK (30 mM Hepes-KOH pH 7.4, 5 mM MgSO4, 1 mM EGTA, 50 mM K-acetate), 60 min, room temperature; SDS-PAGE and western blot with anti-FAP45 and anti-FAP52 antibodies; wild type compared with fap45 and fap52 axonemes

Q: Which binding does the source give for tubulin here?
A: binds
